Hit rate of the full screen: of about 400,000 compounds, about 5,500 (1.4%) were called active. Inconclusive means that the source gave no clear call. Such entries were picked first, then a sample of the others. The call rests on the fitted dose curve; in most records, active means well fitted cell-killing curve with a large enough effect; inconclusive means small, poorly fitted or top-dose-only effect, or effect the other way; inactive means flat fitted curve, though single readings scatter. A potency beside an inconclusive call is a rough fit, not a confirmed value.
test: qHTS assay for MDR1-selective chemotherapeutics: Primary screen using the parental adenocarcinoma cell KB-3-1; settings: KB-3-1 viability, CellTiter-Glo ATP luminescence, 72 h; activity change, negative = cytotoxic: at 46.1 µM (top of the series); further: nearly all actives have a fitted effect of over 60% in size
In short: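 Cytotoxicity measured as CellTiter-Glo luminescence after 72 h at 37 C. Compound titrations were pinned onto drug-naive KB-3-1 parental adenocarcinoma cells grown in DMEM with 10% FBS, and normalized data fitted to concentration-response curves.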
On the % scale 0 is the no-effect control and ±100 the full control effect; potency means the concentration at half of the fitted maximal effect.

Row | Structure (SMILES) | Potency | activity change, negative = cytotoxic
1 | Fc1ccc(CCNC(=S)Nc2ccc(F)c(Cl)c2)cc1 | inconclusive: 20.6 µM [cytotoxic, single point] | –
2 | O=S1(=O)CC(N2CCN(Cc3ccccc3F)CC2)CN1Cc1cn(Cc2cccc(Cl)c2)nn1 (stereo unspecified) | inconclusive: 29.1 µM [cytotoxic, single point] | –
3 | O=S(=O)(CCn1cccc1)CCn1cccc1 | – | inactive: -6.33%
4 | CCN(CC)S(=O)(=O)c1ccc2oc(SCC(=O)Nc3cc(C)on3)nc2c1 | inconclusive: 16.4 µM [cytotoxic, partial curve] | –
5 | COc1ccccc1NC(=O)COn1nnc2ccc(S(=O)(=O)N3CCOCC3)cc21 | inconclusive: 29.1 µM [rising, single point] | –
6 | Cc1ccc2c(c1)cc(CN(Cc1ccco1)S(=O)(=O)c1ccccc1)c1nnnn12 | inconclusive: 23.1 µM [cytotoxic, partial curve, poor fit] | –
7 | CC(=O)NCCc1ccc(S(=O)(=O)Nc2ccc(C)c(S(=O)(=O)N3CCOCC3)c2)cc1 | inconclusive: 29.1 µM [cytotoxic, partial curve, poor fit] | –
8 | O=C(/C=C/c1ccccc1)NCCc1c[nH]c2ccccc12 | inconclusive: 0.0058 µM [cytotoxic, full curve] | –
9 | CCOc1ccc(CNS(=O)(=O)c2ccc(-c3coc(C)n3)cc2)cc1OC | inconclusive: 29.1 µM [cytotoxic, single point] | –
10 | COc1ccc(CCN2C(=O)c3[nH]nc(-c4ccccc4O)c3C2c2ccccc2)cc1OC (stereo unspecified) | active: 16.4 µM | –
11 | COC(=O)/C(=C\Nc1ccc(Cl)cc1Cl)NC(=O)c1ccc(Cl)cc1Cl | inconclusive: 20.6 µM [cytotoxic, single point] | –
12 | Cc1cnc(C(=O)OCC(=O)N2CCN(S(=O)(=O)c3ccc(Cl)cc3)CC2)cn1 | – | inactive: -2.18%
13 | Cc1cc(O)c(NC(=O)c2cc([N+](=O)[O-])ccc2Cl)cc1C | inconclusive: 14.6 µM [cytotoxic, partial curve, poor fit] | –
14 | CN(C)S(=O)(=O)N1CCCC(C(=O)c2ccc(-c3ccccc3)c(F)c2)C1 (stereo unspecified) | inconclusive: 16.4 µM [cytotoxic, single point] | –
15 | CCCCNC(=O)C1(C)CCCCN1C(=O)c1ccc2c(c1)CCO2 (stereo unspecified) | – | inactive: 0%
16 | NCCCC[C@H](N)c1nnc([C@H](CCC(=O)O)NC(=O)C2CCNCC2)o1 | inconclusive: 10.3 µM [rising, partial curve] | –
17 | C=CCOc1ccc(CN(C)C(=O)c2ccc(CNS(=O)(=O)c3ccc(C)c(C)c3)cc2)cc1 | active: 13 µM | –
18 | COc1cccc(CN2CCN(Cc3cccc4c3OCO4)CC2CCO)c1 (stereo unspecified) | – | inactive: 2.52%
19 | COc1ccccc1N(Cc1ccccc1)S(=O)(=O)c1cccc(C(=O)Nc2cccc(C)n2)c1 | inconclusive: 18.4 µM [cytotoxic, single point] | –
20 | Cc1ccc2nc(NC(=O)C3CCN(S(=O)(=O)c4cccnc4)CC3)sc2c1 | inconclusive: 29.1 µM [cytotoxic, single point] | –
21 | CC1CCc2cc(F)ccc2N1C(=O)CSc1nnc2c(n1)[nH]c1ccccc12 (stereo unspecified) | – | inactive: -2.83%
22 | COc1ccc(/C=C(\C#N)c2nc3ccccc3n2C)c(OC)c1 | – | inactive: 0.722%
23 | N#Cc1ccc(N2Cc3ccccc3C2=NC(=O)c2cccnc2Cl)cc1 | inconclusive: 7.31 µM [cytotoxic, partial curve, poor fit] | –
24 | CS(=O)(=O)NCCCNc1ccc(C(F)(F)F)cc1[N+](=O)[O-] | inconclusive: 7.31 µM [cytotoxic, partial curve, poor fit] | –

5 neighbouring records out of the list so far:
Row | Structure (SMILES) | Potency | activity change, negative = cytotoxic
9 | CCOc1ccc(CNS(=O)(=O)c2ccc(-c3coc(C)n3)cc2)cc1OC | inconclusive: 29.1 µM [cytotoxic, single point] | –
10 | COc1ccc(CCN2C(=O)c3[nH]nc(-c4ccccc4O)c3C2c2ccccc2)cc1OC (stereo unspecified) | active: 16.4 µM | –
11 | COC(=O)/C(=C\Nc1ccc(Cl)cc1Cl)NC(=O)c1ccc(Cl)cc1Cl | inconclusive: 20.6 µM [cytotoxic, single point] | –
12 | Cc1cnc(C(=O)OCC(=O)N2CCN(S(=O)(=O)c3ccc(Cl)cc3)CC2)cn1 | – | inactive: -2.18%
13 | Cc1cc(O)c(NC(=O)c2cc([N+](=O)[O-])ccc2Cl)cc1C | inconclusive: 14.6 µM [cytotoxic, partial curve, poor fit] | –

More compounds.

Row | Structure (SMILES) | Potency | activity change, negative = cytotoxic
25 | O=C(CSc1nnnn1-c1cccnc1)Nc1ccc(F)cc1F | – | inactive: 15.5%
26 | COc1cccc(NC(=O)c2cnc(SCC(=O)N3CCOCC3)n(C)c2=O)c1 | – | inactive: -13.9%
27 | O=C(NCc1cccnc1)C1CC(c2ccccc2O)=NO1 (stereo unspecified) | – | inactive: 1.14%
28 | CCCCOC(=O)c1ccc(NC(=O)C(=O)CC(=O)c2ccc(OC)cc2)cc1 | inconclusive: 18.4 µM [cytotoxic, single point] | –
29 | COc1ccc(NC(=O)C#Cc2ccccc2)cc1OC | active: 18.4 µM | –
30 | CCOC(=O)c1sc2nc[nH]c(=O)c2c1C | inconclusive: 23.1 µM [cytotoxic, single point] | –
31 | CCn1c(SCC(=O)Nc2cccc(S(=O)(=O)N(C)c3ccccc3)c2)nnc1C1CC1 | – | inactive: -7.32%
32 | COc1ccc(CNCCC(c2ccc(OC(C)C)cc2)c2ccccc2OC)cc1OC (stereo unspecified) | inconclusive: 18.4 µM [cytotoxic, single point] | –
33 | Cn1c(C(=O)NCc2cccnc2)cc2sccc21 | inconclusive: 29.1 µM [cytotoxic, single point] | –
34 | O=C(NC1CCCC1)C(c1ccncc1)N(Cc1ccco1)C(=O)c1ccc(-c2ccccc2)[nH]1 (stereo unspecified) | inconclusive: 29.1 µM [cytotoxic, single point] | –
35 | O=C(/C=C/c1ccccc1)Nc1ccc(Br)cn1 | active: 5.17 µM | –
36 | CC(=O)Nc1nc2ccccc2n1Cc1ccc(Cl)cc1 | active: 9.2 µM | –
37 | Cc1ccc(Oc2c(C(N)=O)cc([N+](=O)[O-])cc2[N+](=O)[O-])cc1 | active: 20.6 µM | –
38 | COc1ccc(NC(=O)c2cccc(NC(=O)C3C4CC5OC(=O)C3C5C4)c2)c(OC)c1 (stereo unspecified) | – | inconclusive: 35.9%
39 | O=C(c1ccccc1)N1CCN(C2CC(=O)N(CCc3ccccc3)C2=O)CC1 (stereo unspecified) | inconclusive: 0.0058 µM [cytotoxic, full curve] | –
40 | O=C1COc2ccc(-c3cc(-c4ccccc4)c4c(n3)-c3cc(Cl)ccc3OC4)cc2N1 | – | inactive: 21.1%
41 | Cc1cccc(NC(=O)CCc2c(C)nc3c(c(C)nn3C(C)(C)C)c2C)c1C | inconclusive: 23.1 µM [cytotoxic, single point] | –
42 | O=C(NC1CCN(Cc2ccccc2)CC1)c1cncc(Br)c1 | – | inactive: 2.2%
43 | COc1ccc(C(=O)Nc2ccc(N3CCOCC3)cc2)cc1OC | inconclusive: 18.4 µM [cytotoxic, partial curve] | –
44 | CCc1c(C(=O)c2ccc(Cl)cc2)oc2c(C)c3oc(=O)cc(C)c3cc12 | – | inactive: -3.65%
45 | COC(=O)c1ccc2nc(-c3ccc(OC)c(OC)c3)c(CC3CCCCC3)n2c1 | inconclusive: 29.1 µM [cytotoxic, single point] | –
46 | CCOc1cccc(-c2nnc3sc(-c4cc(OC)c(OC)c(OC)c4)nn23)c1 | inconclusive: 29.1 µM [cytotoxic, single point] | –
47 | Cc1ccc(N2CCN(S(=O)(=O)c3ccc4[nH]c5c(c4c3)CCCCC5)CC2)c(C)c1 | inconclusive: 18.4 µM [cytotoxic, single point] | –
48 | CCN(C(=O)c1cn(CC)c(=O)c2cc(OC)c(OC)cc12)c1ccc(C)c(C)c1 | – | inactive: 18.9%

Row | Structure (SMILES) | Potency | activity change, negative = cytotoxic
49 | Cc1cccc[n+]1CC(=O)N1c2ccccc2Sc2ccccc21 | inconclusive: 16.4 µM [cytotoxic, single point] | –
50 | CCOc1cc(CNn2cn[nH]c2=S)cc(Cl)c1OCc1ccccc1F | – | inactive: -28.8%
51 | O=C(CC(=O)c1ccccc1O)c1ccc(F)cc1 | inconclusive: 29.1 µM [cytotoxic, single point] | –
52 | COc1ccc(C(O)Cn2c(=N)n(CCCN(C)C)c3ccccc32)cc1 (stereo unspecified) | inconclusive: 29.1 µM [cytotoxic, single point] | –
53 | COc1ccccc1NC(=O)c1ccccc1NC(=O)c1ccccn1 | inconclusive: 29.1 µM [rising, single point] | –
54 | COc1ccc(C(=O)Nc2ccccc2C(=O)Nc2ccccc2C(=O)O)cc1 | inconclusive: 14.6 µM [cytotoxic, partial curve, poor fit] | –
55 | CCc1nnc(NC(=O)c2cc(Cl)ccn2)s1 | inconclusive: 20.6 µM [cytotoxic, partial curve, poor fit] | –
56 | CC(=O)N1CCC2(CC1)C/C(=N\NC(=S)Nc1ccccc1F)c1cc(O)ccc1O2 | inconclusive: 25.9 µM [cytotoxic, single point] | –
57 | COC(=O)c1cc2occc2n1CC(=O)Nc1ccc(C(C)C)cc1 | – | inactive: -0.218%
58 | O=C1C(=O)c2ccc(-c3ccccc3)cc2-c2ccccc21 | active: 4.11 µM | –
59 | Cc1[nH]c2ccccc2c1/C=C/c1ccnc2ccccc12 | active: 8.2 µM | –
60 | c1ccc(-c2cccc(-c3ccccc3)n2)cc1 | – | inconclusive: -42.4% [cytotoxic]
61 | CC(C)(C)C1CCC2(CC1)NC(=S)N(c1ccccc1)N2 (stereo unspecified) | inconclusive: 29.1 µM [cytotoxic, single point] | –
62 | O=C(CSc1n[nH]c(-c2ccccc2Cl)n1)NC1CCCCC1 | – | inconclusive: -22%
63 | C=CC[n+]1ccc(/C=C2\C=Cc3cc(C)ccc3N2CC)c2ccccc21 | active: 8.2 µM | –
64 | Cc1c(N2C(=O)/C(=C/C3CC=CCC3)SC2=S)c(=O)n(-c2ccccc2)n1C (stereo unspecified) | – | inactive: 4.47%
65 | C=C(CN(C)C)C(=O)c1ccc(C)cc1C | inconclusive: 29.1 µM [cytotoxic, single point] | –
66 | Fc1ccccc1N1CCN(c2ncc3c(n2)CCN(Cc2cc(Br)cs2)C3)CC1 | – | inactive: 3.28%
67 | CS(=O)(=O)c1nc(-c2ccccc2)cc(C(F)(F)F)n1 | inconclusive: 16.4 µM [cytotoxic, single point] | –
68 | Cc1ccc(-c2cc(C(F)F)n3ncc(C(=O)N4CCN(c5ccccn5)CC4)c3n2)cc1 | inconclusive: 20.6 µM [cytotoxic, partial curve] | –
69 | COc1ccc(/C=N/NC(=O)c2cc3c(ccc4ccccc43)o2)cc1OC | inconclusive: 18.4 µM [rising, single point] | –
70 | O=C(NCCc1ccccc1)c1ncn[nH]1 | – | inactive: 13.3%
71 | COc1cc(OC)c(C2C=CC(=O)CC2)c(OC)c1 (stereo unspecified) | inconclusive: 29.1 µM [cytotoxic, single point] | –

— PubChem BioAssay AID1347075 (National Center for Advancing Translational Sciences (NCATS), 2019)
